Results are given in words; binding and its absence hold for the method and conditions named. In cells and extracts the contact can be indirect. Binding calls can cover weak binding; strength is not graded here.
Target: EVA71 3D viral polymerase (enterovirus A71 (strain 4643/TW/98))
Experiment: co-IP; lysates of EVA71-infected (MOI 10, 6 h) or mock-infected RD cells; IP with anti-3D or anti-UGGT1 antibody (mouse or rabbit IgG as control), Western blot; also with RNase A treatment of the lysate before the IP

B1: Interleukin enhancer binding factor 3 (protein, UniProt Q12906 1-894)
chain: MRPMRIFVNDDRHVMAKHSSVYPTQEELEAVQNMVSHTERALKAVSDWIDEQEKGSSEQAESDNMDVPPEDDSKEGAGEQKTEHMTRTLRGVMRVGLVAKGLLLKGDLDLELVLLCKEKPTTALLDKVADNLAIQLAAVTEDKYEILQSVDDAAIVIKNTKEPPLSLTIHLTSPVVREEMEKVLAGETLSVNDPPDVLDRQKCLAALASLRHAKWFQARANGLKSCVIVIRVLRDLCTRVPTWGPLRGWPLELLCEKSIGTANRPMGAGEALRRVLECLASGIVMPDGSGIYDPCEKEATDAIGHLDRQQREDITQSAQHALRLAAFGQLHKVLGMDPLPSKMPKKPKNENPVDYTVQIPPSTTYAITPMKRPMEEDGEEKSPSKKKKKIQKKEEKAEPPQAMNALMRLNQLKPGLQYKLVSQTGPVHAPIFTMSVEVDGNSFEASGPSKKTAKLHVAVKVLQDMGLPTGAEGRDSSKGEDSAEETEAKPAVVAPAPVVEAVSTPSAAFPSDATAEQGPILTKHGKNPVMELNEKRRGLKYELISETGGSHDKRFVMEVEVDGQKFQGAGSNKKVAKAYAALAALEKLFPDTPLALDANKKKRAPVPVRGGPKFAAKPHNPGFGMGGPMHNEVPPPPNLRGRGRGGSIRGRGRGRGFGGANHGGYMNAGAGYGSYGYGGNSATAGYSQFYSNGGHSGNASGGGGGGGGGSSGYGSYYQGDNYNSPVPPKHAGKKQPHGGQQKPSYGSGYQSHQGQQQSYNQSPYSNYGPPQGKQKGYNHGQGSYSYSNSYNSPGGGGGSDYNYESKFNYSGSGGRSGGNSYGSGGASYNPGSHGGYGGGSGGGSSYQGKQGGYSQSNYNSPGSGQNYSGPPSSYQSSQGGYGRNADHSMNYQYR
- binding: binds
